Results are given in words; binding and its absence hold for the method and conditions named. Binding seen in cells or lysates may run through a third protein. Binding calls can cover weak binding; strength is not graded here.
Target: GFP-Scrib (UniProt Q14160)
Experiment: co-IP; A549 cell lysates (parental, stably expressing GFP-Scrib or Neon-Lgl1 forms, or tet-shLgl1 without Dox) in NP-40 buffer (20 mM Tris pH 8, 150-200 mM NaCl, 0.5 mM EDTA, 1% NP-40, 1 mM DTT, 5% glycerol); antibody 2 h at 4°C, protein A/G beads, three washes, Western blot; IgG as negative …

Sequences of proteins named here, by UniProt entry; tags and fusion partners are left off. A change or cut given only in a name is not applied to a line headed by its entry.
UniProt Q14160: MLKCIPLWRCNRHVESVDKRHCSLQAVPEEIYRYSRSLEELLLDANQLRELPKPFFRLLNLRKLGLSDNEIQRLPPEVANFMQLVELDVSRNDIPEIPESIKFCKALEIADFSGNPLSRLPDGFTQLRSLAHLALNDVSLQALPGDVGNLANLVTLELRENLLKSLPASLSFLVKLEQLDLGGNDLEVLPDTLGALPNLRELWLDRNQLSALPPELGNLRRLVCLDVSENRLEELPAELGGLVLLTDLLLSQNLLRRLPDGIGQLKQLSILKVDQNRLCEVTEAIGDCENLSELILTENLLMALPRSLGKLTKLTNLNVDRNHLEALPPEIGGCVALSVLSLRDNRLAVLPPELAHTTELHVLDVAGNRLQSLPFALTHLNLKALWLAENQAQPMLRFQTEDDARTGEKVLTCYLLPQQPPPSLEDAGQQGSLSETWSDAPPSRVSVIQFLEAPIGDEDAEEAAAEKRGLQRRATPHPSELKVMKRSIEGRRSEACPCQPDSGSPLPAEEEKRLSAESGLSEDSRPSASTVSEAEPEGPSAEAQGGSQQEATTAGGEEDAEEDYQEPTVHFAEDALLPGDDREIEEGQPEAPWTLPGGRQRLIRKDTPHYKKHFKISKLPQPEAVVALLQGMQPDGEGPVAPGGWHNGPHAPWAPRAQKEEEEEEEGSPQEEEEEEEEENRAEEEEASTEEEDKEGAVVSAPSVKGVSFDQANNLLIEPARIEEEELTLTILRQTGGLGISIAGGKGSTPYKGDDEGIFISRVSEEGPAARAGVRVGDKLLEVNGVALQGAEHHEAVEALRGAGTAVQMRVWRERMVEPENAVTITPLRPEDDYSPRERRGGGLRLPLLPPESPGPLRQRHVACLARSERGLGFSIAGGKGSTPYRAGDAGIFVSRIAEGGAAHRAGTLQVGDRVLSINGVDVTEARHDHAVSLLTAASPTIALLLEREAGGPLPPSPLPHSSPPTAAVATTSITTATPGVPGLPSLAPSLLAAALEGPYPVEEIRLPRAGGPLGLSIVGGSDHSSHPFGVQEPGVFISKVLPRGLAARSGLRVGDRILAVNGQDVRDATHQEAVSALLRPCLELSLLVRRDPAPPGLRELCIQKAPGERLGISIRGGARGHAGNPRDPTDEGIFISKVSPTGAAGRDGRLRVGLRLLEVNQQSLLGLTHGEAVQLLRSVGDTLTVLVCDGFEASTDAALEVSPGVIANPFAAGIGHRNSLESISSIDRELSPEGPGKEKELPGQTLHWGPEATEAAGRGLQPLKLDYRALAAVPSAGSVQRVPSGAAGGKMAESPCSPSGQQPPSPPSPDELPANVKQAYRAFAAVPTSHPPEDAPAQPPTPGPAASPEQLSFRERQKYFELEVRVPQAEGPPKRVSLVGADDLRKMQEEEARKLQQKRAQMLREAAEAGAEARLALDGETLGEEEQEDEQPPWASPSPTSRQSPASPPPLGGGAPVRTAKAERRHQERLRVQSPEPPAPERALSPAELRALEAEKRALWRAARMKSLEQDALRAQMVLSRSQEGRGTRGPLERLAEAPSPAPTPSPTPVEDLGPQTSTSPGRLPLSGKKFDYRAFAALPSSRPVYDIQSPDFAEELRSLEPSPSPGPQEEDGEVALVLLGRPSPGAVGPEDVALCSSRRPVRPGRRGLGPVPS
UniProt P35221: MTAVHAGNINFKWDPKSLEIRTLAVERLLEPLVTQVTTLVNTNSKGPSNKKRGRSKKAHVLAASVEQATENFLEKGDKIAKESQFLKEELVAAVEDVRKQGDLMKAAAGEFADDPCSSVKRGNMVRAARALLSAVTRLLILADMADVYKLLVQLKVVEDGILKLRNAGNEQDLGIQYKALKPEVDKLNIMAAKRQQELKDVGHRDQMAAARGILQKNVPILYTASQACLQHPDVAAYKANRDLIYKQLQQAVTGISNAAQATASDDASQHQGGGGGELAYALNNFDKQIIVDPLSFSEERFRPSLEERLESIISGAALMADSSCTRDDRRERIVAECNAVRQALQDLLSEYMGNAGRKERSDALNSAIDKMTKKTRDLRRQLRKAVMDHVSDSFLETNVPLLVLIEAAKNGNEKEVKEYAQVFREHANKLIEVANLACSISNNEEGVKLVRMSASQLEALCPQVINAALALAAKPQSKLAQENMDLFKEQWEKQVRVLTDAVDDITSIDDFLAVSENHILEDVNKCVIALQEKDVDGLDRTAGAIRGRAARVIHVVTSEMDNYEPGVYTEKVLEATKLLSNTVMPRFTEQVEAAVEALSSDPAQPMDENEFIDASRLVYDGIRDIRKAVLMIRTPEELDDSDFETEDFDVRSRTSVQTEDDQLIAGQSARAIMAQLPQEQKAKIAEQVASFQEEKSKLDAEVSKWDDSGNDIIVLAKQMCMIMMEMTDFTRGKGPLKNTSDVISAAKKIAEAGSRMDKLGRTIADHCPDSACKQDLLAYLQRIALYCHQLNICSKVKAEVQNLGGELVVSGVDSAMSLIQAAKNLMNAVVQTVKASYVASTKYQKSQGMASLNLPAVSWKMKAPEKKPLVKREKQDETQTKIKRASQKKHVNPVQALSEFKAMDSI

| binding | Molecule |
| --- | --- |
| binds | α-catenin (endogenous) (from UniProt P35221 1-906) |
| binds | Lgl1 (endogenous) (protein, UniProt Q15334 1-1064) MMKFRFRRQGADPQREKLKQELFAFNKTVEHGFPNQPSALAFDPELRIMAIGTRSGAVKIYGAPGVEFTGLHRDAATVTQMHFLTGQGRLLSLLDDSSLHLWEIVHHNGCAHLEEALSFQLPSRPGFDGASAPLSLTRVTVVLLVAASDIAALGTEGSSVFFLDVTTLTLLEGQTLAPGEVLRSVPDDYRCGKALGPVESLQGHLRDPTKILIGYSRGLLVIWNQASQCVDHIFLGNQQLESLCWGRDSSTVVSSHSDGSYAVWSVDAGSFPTLQPTVATTPYGPFPCKAINKILWRNCESGGHFIIFSGGMPRASYGDRHCVSVLRAETLVTLDFTSRIIDFFTVHSTRPEDEFDDPQALAVLLEEELVVLDLQTPGWPAVPAPYLAPLHSSAITCSAHVASVPAKLWARIVSAGEQQSPQPVSSALSWPITGGRNLAQEPSQRGLLLTGHEDGTVRFWDASGVALRPLYKLSTAGLFQTDCEHADSLAQAAEDDWPPFRKVGCFDPYSDDPRLGVQKVALCKYTAQMVVAGTAGQVLVLELSDVPVEQAVSVAIIDLLQDREGFTWKGHERLSPRTGPLPWPAGFQPRVLVQCLPPAAVTAVTLHTEWSLVAFGTSHGFGLFDYQRKSPVLARCTLHPNDSLAMEGPLSRVKSLKKSLRQSFRRIRKSRVSGKKRAANASSKLQEANAQLAEQACPHDVEMTPVQRRIEPRSADDSLSGVVRCLYFADTFLRDGAHHGPTMWAGTNSGSVFAYALEVPAAAVGGEKRPEQAVEAVLGKEVQLMHRAPVVAIAVLDGRGRPLPEPYEASRDLAQAPDMQGGHAVLIASEEQFKVFTLPKVSAKTKFKLTAHEGCRVRKVALATFASVACEDYAETCLACLTNLGDVHVFSVPGLRPQVHYSCIRKEDISGIASCVFTRHGQGFYLISPSEFERFSLSARNITEPLCSLDINWPRDATQASYRIRESPKLSQANGTPSILLAPQSLDGSPDPAHSMGPDTPEPPEAALSPMSIDSATSADTTLDTTGDVTVEDVKDFLGSSEESEKNLRNLAEDEAHACAILIK |
